Source: publication PMC5996148
Several values for one entry are separate records, joined by “and”; a condition that tells them apart may be missing. Identical values can stand only once. This is one part of the list. For some assays here: The source does not settle which construct or isoform was used.

Tests used:
Assay in all cases: protein microarray (ProtoArray v5.0), streptavidin-Alexa Fluor 647
Settings in all cases: 3'-biotin; 20 mM Tris (pH 7.5), 5 mM MgCl2, 100 mM KCl, 0.1% Tween-20, A/T-rich and random oligonucleotide blockers; temperature not stated; high values mean tight binding
[1] = tested on: SPAG16 (human)
[2] = tested on: SPAG6 (human)
[3] = tested on: SPAG8 (human)
[4] = tested on: SPAG9 (human)
[5] = tested on: SPDEF (human)
[6] = tested on: SPG21 (human)
[7] = tested on: SPHK1 (human)
[8] = target: T1, SPRR4 (UniProt Q96PI1)
T1 sequence: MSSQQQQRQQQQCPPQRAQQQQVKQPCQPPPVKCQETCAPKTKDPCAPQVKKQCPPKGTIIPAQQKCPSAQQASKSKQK

[9] = target: T2, SS18L2 (UniProt Q9UHA2)
T2 sequence: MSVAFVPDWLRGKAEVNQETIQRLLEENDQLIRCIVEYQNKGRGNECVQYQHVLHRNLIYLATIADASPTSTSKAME

[10] = tested on: SSBP3 (human)
[11] = tested on: SSPN (human)
[12] = target: T3, STAP1 (UniProt Q9ULZ2)
T3 sequence: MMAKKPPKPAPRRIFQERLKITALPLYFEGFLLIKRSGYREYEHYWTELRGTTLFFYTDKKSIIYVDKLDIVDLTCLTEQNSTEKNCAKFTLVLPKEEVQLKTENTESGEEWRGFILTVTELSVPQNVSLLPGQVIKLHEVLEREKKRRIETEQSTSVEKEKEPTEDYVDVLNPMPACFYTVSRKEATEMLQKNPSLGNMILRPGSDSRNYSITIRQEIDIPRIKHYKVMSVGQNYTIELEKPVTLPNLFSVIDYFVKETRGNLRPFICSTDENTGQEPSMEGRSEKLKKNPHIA

[13] = tested on: STARD7 (human)
[14] = tested on: STCH (human)
[15] = tested on: STEAP4 (human)
[16] = tested on: STK16 (human)
[17] = tested on: STK40 (human)
[18] = tested on: STOML2 (human)
[19] = tested on: STRA13 (human)
[20] = tested on: STX18 (human)

GGGGACAGGGGTATGGGGAGGGG [G4-3 biotinylated (CtG)]
binding signal [1]: -0.333 z-score | binding signal [2]: -0.319 z-score | binding signal [3]: -0.321 z-score | binding signal [4]: -0.309 z-score | binding signal [5]: -0.331 z-score | binding signal [6]: -0.342 z-score | binding signal [7]: -0.318 z-score | binding signal [8]: 5.25 z-score | binding signal [9]: -0.336 z-score | binding signal [10]: -0.35 z-score and -0.346 z-score | binding signal [11]: -0.321 z-score | binding signal [12]: 6.03 z-score | binding signal [13]: -0.339 z-score | binding signal [14]: -0.327 z-score | binding signal [15]: -0.318 z-score | binding signal [16]: -0.322 z-score | binding signal [17]: -0.32 z-score | binding signal [18]: -0.313 z-score | binding signal [19]: -0.309 z-score | binding signal [20]: -0.327 z-score
